PubChem BioAssay AID504784 – Drosophila RNAi Screening Center | 2011

Screen: 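Genome-wide knock-down for genes giving too much or too little stored lipid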 (primary screen)
Cells: Drosophila Kc167 embryonic cells
Reagents: long dsRNA against Drosophila genes, about 250 ng dsRNA per well
Time to read-out: 4 days
Treatment: cells fed 400 µM oleic acid bound to BSA
Read-out: 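Cells imaged and segmented; ratio of lipid droplet area to nuclear area, log-transformed, then normalised as a B-score over the screen; higher means more stored lipid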
Scale: droplet/nuclear area B-score: higher = more stored lipid (overstorage)
The screen tested about 17,000 reagents; this is a random part of those with a known target gene and a result. 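Each column is one replicate's B-score; the combined score over replicates was not deposited, so single values may mislead.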 Reagents against one gene are numbered here. Names joined by + are all predicted targets of the reagent.

no.	target	reagent no.	droplet/nuclear area B-score, replicate 1	droplet/nuclear area B-score, replicate 2	droplet/nuclear area B-score, replicate 3
1	CG9948 (GeneID 38757)	1	0.525	-1.09	
2	mr (GeneID 45906)	1	0.279	-0.102	
3	mr (GeneID 45906)	2	0.306	0.109	
4	sbb (GeneID 44027)	1	-0.0214	-0.173	
5	sbb (GeneID 44027)	2	-0.588	-1.13	
6	XNP (GeneID 43080)	1	0.942	-0.688	
7	Ets21C (GeneID 33229)	1	-0.0912	1.42	
8	Asator (GeneID 43794)	1	-0.938	0.198	
9	CG31706 (GeneID 261621)	1	1.26	-0.579	
10	Spn42Da (GeneID 49805)	1	0.104	0.261	
11	CG6845 (GeneID 38019)	1		-2.49	
12	Cad86C (GeneID 41302)	1	1.62	0.0901	
13	Cad86C (GeneID 41302)	2	-0.775	-1.78	
14	MED24 (GeneID 38914)	1	-0.853	-0.79	
15	RpL14 (GeneID 38983)	1	5.2	4.65	

3 entries from above, reduced to “droplet/nuclear area B-score, replicate 2”.
Spn42Da (GeneID 49805)	0.261
CG6845 (GeneID 38019)	-2.49
Cad86C (GeneID 41302) #1	0.0901

The list goes on.
no.	target	reagent no.	droplet/nuclear area B-score, replicate 1	droplet/nuclear area B-score, replicate 2	droplet/nuclear area B-score, replicate 3
16	Nelf-A (GeneID 42520)	1	1.12	0.132	
17	E(z) (GeneID 39203)	1	1.72	0.00575	
18	CG7236 (GeneID 33798)	1	-1.46	1.53	
19	CG8677 + CG31626	1	1.52	0.723	
20	Kr-h2 (GeneID 33859)	1	2.77	0.0183	
21	CG4951 (GeneID 43355)	1	1.07	0.344	
22	CG16800 (GeneID 34693)	1	-1.87	0.679	
23	CG12020 (GeneID 38233)	1	0.566	1.12	
24	cid (GeneID 36495)	1	0.678	-0.807	
25	cid (GeneID 36495)	2	1.25	-1.04	
26	aurB (GeneID 34504)	1	0.639		
27	aurB (GeneID 34504)	2		0.0376	
28	CG3961 (GeneID 40056)	1	0.0155	-1.71	1.74
29	CG3961 (GeneID 40056)	2	0.359	2.22	
30	inaD (GeneID 37629)	1	-0.529	1.22	
31	PGRP-SC1b (GeneID 35861)	1	0.393	1.34	
32	CG30487 (GeneID 246646)	1	0.331	0.878	
33	Cyp313a4 (GeneID 41563)	1	3.15	-0.481	
34	CG10459 (GeneID 36000)	1	1.84	1.04	
35	CG10459 (GeneID 36000)	2	-0.675	0.48	
